Measurements reported in paper PMC10724235.
No constants are given. Whether binding was seen depends on the method and setting. In cells and extracts the contact can be indirect. Some binding calls cover weakened binding; strength is not graded here.

Protein sequences, listed by entry. Tags and fused reporters are not part of them.
UniProt O15105: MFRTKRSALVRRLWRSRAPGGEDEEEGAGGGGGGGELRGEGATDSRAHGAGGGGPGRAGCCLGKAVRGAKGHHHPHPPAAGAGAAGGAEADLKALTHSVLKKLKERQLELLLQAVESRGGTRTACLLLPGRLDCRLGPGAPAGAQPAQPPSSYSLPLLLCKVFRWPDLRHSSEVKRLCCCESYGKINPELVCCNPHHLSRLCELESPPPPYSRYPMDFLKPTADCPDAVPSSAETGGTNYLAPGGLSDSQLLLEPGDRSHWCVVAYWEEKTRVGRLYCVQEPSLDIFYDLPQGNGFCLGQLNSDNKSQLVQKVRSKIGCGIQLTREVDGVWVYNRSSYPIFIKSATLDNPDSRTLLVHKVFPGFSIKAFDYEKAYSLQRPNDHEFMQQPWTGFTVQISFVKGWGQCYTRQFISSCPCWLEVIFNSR
UniProt Q9HAU4: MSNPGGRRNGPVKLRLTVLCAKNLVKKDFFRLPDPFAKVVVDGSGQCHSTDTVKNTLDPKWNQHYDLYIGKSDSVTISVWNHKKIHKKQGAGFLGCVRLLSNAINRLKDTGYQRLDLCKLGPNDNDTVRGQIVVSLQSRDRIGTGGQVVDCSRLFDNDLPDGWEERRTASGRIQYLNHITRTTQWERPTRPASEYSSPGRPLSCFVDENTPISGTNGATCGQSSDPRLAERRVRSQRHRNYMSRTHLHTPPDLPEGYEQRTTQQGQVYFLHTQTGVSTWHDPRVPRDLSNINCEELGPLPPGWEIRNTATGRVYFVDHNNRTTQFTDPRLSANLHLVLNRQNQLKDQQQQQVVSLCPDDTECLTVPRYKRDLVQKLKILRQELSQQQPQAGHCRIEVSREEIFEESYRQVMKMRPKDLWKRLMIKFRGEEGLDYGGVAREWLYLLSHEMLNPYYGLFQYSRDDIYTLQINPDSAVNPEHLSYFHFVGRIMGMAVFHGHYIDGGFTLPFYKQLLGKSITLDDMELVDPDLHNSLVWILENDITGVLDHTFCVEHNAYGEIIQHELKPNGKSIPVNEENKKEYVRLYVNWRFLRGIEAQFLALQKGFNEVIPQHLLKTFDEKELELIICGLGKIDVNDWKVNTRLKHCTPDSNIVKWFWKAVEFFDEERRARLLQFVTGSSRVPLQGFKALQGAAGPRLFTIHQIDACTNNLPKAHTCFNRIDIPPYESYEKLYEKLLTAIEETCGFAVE

Target: FLAG-tagged SMAD7 (UniProt O15105)
Assay: co-IP; HEK293T transfected with MYC-SMURF2, Flag-SMAD7 and/or GST-SHP2, lysed after 48 h; immunoprecipitated with anti-FLAG affinity resin, blotted; with and without co-expressed SHP2

binding: binds
Substance: MYC-tagged SMURF2 (from UniProt Q9HAU4 1-748) (enzyme)
